No constants are given. Whether binding was seen depends on the method and setting. Binding seen in cells or lysates may run through a third protein. Binding calls can cover weak binding; strength is not graded here.

This experiment deals with His10::TbKH (Trypanosoma brucei KHARON endogenously tagged at its N-terminus with His10) (Trypanosoma brucei) (UniProt Q38A80). Briefly: cross-linking + pull-down.

Consider “HA3::TbKHAP1 (T. brucei KHARON associated protein 1 tagged at its N-terminus with HA3) (from UniProt Q386P9)”, for which the binding result is given as “binds”.

The record behind these values is doi:10.1101/2020.10.07.330316.
